According to article PMC10518936:
These are yes or no findings as the source states them, for the method shown. Binding seen in cells or lysates may run through a third protein. Some results given as binding are weak or reduced against the parent protein; the word gives no strength.

Amino acid sequences for entries named in this document (tags omitted). A change or cut given only in a name is not applied to a line headed by its entry.
UniProt Q99MQ3: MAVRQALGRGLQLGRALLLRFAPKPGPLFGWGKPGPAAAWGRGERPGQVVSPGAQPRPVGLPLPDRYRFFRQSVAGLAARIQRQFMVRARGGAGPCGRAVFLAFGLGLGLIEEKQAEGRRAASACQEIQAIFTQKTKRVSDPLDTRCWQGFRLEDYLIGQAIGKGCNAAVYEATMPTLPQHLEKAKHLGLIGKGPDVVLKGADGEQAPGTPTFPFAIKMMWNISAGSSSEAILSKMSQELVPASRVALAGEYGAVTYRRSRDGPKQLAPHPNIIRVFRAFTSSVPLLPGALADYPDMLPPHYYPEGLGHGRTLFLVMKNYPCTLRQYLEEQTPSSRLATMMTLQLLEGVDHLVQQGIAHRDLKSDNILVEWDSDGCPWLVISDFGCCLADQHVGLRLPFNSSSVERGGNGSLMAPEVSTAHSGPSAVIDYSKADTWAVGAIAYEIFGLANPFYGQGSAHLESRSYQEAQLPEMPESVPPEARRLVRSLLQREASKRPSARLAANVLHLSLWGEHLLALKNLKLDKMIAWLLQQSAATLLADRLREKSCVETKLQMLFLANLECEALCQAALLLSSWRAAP

Tests used:
[1] = target: PTEN mediated putative kinase protein 1 (PINK1) (UniProt Q99MQ3); assay: co-IP; cells lysed in RIPA lysis buffer; supernatant incubated with the corresponding antibodies overnight at 4 °C; protein A agarose beads overnight at 4 °C; rinsed with PBS; detected by Western blotting; which antibody precipitated is not stated
[2] = target: T1, SND1 (staphylococcal nuclease and Tudor domain containing 1) protein (UniProt Q78PY7); assay: as above
T1 sequence: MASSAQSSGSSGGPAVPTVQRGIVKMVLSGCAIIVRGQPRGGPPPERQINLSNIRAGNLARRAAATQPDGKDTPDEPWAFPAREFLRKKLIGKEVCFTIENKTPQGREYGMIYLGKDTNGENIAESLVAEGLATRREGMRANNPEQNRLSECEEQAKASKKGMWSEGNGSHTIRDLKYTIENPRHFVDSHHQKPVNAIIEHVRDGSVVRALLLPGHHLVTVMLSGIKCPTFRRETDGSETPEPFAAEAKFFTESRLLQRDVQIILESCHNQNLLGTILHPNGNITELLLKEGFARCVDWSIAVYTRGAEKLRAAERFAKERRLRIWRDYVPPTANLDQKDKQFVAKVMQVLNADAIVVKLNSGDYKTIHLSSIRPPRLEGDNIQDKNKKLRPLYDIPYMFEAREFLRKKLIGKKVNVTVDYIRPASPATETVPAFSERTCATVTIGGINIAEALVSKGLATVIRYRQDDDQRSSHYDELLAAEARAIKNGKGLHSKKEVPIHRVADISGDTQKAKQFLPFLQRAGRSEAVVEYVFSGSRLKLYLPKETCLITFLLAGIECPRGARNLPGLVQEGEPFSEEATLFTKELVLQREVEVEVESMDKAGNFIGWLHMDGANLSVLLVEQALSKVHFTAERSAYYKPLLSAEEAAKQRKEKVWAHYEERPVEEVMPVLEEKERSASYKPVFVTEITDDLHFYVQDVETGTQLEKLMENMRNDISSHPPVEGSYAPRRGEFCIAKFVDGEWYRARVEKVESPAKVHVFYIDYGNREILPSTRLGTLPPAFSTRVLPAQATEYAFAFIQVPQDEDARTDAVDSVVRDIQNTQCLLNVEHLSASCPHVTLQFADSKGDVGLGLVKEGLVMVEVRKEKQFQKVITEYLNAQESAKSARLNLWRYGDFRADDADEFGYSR

Substance | binding [1] | binding [2]
BECN1 (from UniProt O88597 1-448) | binds | 
PTEN mediated putative kinase protein 1 (PINK1) (from UniProt Q99MQ3 78-580) |  | binds
